The text below walks through data of article PMC7665214.

By UniProt entry, the sequences of proteins in these tests, tags left out.
UniProt Q96J92: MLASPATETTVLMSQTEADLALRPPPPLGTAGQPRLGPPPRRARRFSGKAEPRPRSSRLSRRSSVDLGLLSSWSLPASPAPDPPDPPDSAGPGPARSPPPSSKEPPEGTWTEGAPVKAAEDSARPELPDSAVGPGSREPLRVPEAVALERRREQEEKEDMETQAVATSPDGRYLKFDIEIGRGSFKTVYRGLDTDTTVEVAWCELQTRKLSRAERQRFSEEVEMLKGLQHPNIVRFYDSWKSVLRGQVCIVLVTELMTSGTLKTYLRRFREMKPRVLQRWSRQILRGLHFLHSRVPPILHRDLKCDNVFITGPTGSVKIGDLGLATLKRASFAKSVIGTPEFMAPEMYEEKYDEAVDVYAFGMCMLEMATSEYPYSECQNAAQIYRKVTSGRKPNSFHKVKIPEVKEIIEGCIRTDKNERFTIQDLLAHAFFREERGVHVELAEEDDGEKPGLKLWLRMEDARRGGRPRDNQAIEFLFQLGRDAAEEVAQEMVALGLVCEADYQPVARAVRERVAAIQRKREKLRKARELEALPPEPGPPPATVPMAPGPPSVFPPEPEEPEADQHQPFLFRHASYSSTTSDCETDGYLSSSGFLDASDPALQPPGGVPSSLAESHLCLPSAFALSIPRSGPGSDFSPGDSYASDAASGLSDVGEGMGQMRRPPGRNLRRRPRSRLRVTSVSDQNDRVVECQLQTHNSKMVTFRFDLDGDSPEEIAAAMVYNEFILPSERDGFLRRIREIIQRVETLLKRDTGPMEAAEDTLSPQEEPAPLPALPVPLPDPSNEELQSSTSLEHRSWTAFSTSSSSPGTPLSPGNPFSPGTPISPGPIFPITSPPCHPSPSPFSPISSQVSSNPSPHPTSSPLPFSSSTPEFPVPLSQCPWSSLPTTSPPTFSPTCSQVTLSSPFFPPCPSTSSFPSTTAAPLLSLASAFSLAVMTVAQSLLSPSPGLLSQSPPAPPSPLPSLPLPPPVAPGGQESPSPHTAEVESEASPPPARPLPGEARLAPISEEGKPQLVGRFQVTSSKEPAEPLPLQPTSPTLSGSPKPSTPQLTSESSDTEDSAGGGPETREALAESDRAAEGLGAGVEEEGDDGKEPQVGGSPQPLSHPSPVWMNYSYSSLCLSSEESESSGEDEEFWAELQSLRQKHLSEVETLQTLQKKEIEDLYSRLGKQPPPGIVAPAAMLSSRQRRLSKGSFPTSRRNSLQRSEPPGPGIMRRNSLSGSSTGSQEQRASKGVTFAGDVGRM
UniProt P35222: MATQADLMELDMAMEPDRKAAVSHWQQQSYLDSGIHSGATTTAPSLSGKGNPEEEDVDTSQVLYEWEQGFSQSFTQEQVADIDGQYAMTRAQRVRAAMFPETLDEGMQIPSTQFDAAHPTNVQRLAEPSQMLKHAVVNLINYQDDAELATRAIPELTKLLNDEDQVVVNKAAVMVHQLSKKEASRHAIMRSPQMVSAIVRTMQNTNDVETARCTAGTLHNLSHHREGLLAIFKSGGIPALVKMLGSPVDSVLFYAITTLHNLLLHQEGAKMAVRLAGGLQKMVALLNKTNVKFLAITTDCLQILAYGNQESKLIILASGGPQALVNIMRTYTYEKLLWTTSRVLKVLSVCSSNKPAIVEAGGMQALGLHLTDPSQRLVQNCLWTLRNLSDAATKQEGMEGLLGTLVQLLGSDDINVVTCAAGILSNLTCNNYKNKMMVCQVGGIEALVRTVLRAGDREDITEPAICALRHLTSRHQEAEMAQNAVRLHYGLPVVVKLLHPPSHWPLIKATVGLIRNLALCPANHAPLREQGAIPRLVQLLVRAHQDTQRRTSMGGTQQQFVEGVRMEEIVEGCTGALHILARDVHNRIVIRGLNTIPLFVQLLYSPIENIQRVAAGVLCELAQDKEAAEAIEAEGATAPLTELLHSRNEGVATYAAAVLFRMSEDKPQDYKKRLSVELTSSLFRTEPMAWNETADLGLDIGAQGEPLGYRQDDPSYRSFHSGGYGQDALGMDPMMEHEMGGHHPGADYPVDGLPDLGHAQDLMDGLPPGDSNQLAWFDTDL
UniProt Q7L5Y9: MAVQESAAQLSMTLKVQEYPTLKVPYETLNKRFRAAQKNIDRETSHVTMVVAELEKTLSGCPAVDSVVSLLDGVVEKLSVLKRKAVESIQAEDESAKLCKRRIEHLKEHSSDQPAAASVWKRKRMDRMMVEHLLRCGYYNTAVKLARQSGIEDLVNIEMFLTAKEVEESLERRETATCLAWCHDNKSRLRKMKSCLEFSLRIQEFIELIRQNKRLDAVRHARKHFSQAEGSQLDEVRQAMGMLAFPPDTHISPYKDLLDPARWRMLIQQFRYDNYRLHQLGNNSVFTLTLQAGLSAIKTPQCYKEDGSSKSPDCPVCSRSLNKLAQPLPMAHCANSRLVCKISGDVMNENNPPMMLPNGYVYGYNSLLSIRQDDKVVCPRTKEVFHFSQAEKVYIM
UniProt Q9H871: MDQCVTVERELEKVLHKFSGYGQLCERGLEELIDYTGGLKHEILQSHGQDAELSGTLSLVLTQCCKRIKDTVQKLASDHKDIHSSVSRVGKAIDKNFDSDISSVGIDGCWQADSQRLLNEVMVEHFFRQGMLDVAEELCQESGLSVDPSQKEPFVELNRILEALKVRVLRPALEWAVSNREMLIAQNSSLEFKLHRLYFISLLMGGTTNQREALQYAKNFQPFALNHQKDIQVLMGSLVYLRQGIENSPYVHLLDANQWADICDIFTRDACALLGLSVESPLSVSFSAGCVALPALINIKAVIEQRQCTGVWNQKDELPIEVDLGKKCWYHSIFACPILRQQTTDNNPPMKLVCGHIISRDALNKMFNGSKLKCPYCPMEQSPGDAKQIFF
UniProt Q9H4A3: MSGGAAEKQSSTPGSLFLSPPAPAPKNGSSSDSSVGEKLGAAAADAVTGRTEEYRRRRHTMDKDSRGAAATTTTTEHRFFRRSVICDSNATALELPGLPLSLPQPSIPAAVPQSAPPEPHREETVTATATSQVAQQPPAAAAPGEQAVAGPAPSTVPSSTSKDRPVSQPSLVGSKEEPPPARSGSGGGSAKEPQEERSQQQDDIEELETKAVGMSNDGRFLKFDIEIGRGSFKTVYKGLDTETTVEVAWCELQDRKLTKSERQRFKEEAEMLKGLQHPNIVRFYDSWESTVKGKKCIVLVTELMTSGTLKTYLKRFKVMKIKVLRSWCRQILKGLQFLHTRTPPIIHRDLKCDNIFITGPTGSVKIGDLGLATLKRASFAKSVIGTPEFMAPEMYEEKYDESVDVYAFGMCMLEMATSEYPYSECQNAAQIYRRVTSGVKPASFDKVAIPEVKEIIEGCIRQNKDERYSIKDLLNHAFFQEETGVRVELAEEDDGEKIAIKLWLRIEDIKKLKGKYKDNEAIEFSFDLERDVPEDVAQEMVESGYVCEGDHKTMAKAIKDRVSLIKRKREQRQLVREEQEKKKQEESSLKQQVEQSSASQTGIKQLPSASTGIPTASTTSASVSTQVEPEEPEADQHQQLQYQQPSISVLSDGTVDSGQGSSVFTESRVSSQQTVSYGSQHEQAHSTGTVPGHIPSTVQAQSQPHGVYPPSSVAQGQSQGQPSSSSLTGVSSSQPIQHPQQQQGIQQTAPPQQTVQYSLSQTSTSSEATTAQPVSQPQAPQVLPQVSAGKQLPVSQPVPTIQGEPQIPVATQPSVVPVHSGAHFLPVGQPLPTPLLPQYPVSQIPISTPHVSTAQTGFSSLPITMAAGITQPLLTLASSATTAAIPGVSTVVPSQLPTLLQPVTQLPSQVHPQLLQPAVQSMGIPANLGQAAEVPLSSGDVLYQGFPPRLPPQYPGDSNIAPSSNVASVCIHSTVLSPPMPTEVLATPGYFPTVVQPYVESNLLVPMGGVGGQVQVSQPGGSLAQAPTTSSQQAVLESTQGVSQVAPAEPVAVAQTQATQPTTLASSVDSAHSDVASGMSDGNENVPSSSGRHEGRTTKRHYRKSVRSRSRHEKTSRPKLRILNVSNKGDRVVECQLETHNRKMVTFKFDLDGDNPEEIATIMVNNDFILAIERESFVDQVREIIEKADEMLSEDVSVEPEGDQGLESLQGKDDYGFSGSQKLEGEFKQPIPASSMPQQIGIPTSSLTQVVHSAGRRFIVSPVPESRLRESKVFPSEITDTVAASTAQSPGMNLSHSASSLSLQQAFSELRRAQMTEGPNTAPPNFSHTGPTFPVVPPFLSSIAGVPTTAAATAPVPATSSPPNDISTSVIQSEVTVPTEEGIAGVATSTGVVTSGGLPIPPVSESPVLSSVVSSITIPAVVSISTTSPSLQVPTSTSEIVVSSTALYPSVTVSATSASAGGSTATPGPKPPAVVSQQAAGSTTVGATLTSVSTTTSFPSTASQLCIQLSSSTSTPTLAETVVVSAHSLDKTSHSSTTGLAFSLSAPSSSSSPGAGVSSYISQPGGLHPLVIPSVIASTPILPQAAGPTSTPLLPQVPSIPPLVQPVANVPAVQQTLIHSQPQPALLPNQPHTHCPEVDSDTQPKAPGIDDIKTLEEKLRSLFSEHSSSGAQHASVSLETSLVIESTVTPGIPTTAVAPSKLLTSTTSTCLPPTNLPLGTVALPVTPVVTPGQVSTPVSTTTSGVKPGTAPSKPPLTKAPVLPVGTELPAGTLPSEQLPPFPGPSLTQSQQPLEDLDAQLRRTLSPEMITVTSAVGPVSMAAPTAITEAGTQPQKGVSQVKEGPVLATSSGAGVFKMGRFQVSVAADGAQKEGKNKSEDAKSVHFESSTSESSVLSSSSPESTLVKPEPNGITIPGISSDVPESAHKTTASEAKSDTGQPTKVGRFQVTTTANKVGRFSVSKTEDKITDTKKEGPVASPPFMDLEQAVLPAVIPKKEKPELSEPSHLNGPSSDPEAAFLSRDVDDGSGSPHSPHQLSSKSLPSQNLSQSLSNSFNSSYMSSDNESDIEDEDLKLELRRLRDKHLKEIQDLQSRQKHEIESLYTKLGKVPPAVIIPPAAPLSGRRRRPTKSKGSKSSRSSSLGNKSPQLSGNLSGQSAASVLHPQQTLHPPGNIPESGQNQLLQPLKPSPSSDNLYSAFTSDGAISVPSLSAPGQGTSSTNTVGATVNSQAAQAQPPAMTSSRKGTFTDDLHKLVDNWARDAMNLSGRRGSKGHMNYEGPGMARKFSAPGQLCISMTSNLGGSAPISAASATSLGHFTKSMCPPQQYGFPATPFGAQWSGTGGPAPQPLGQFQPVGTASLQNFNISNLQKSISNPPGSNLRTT

Results are given in words; binding and its absence hold for the method and conditions named. Binding seen in cells or lysates may run through a third protein. Some binding calls cover weakened binding; strength is not graded here.

Holding throughout (assay): co-IP; HEK293T cells transfected with the indicated expression vectors; lysates immunoprecipitated with the indicated antibodies (anti-myc for Fig. 3a, b) and Protein A/G PLUS-agarose; western blot; some panels with expression or knockdown of WNK1 and/or WNK4, or treatment with 26016 or #13
Assay [1] concerns the target WNK4 (With No Lysine [K] kinase 4), myc-tagged (UniProt Q96J92).
In a further assay the target is β-Catenin (UniProt P35222).
In the next assay the target is MAEA, Flag-tagged (UniProt Q7L5Y9).

In the case of “RMND5A, Flag-tagged (from UniProt Q9H871 1-391)”, the binding result in assay [1] was “binds”; in the assay with β-Catenin, “no binding”; in the assay with MAEA, Flag-tagged, “binds”.
For “WNK1 (With No Lysine [K] kinase 1), myc-tagged (from UniProt Q9H4A3 1-2382)”, the binding entry in assay [1] was “binds”.
